Test results: publication PMC11926652
Results are given in words; binding and its absence hold for the method and conditions named. Binding seen in cells or lysates may run through a third protein. Binding calls can cover weak binding; strength is not graded here.

Tests used:
[1] = target: T1, mature BCCP1 (BCCP1_(81–280)), biotin carboxyl carrier protein 1 of the Arabidopsis heteromeric acetyl-CoA carboxylase (Arabidopsis) (UniProt Q42533); test: co-purification + NMR titration; 15N-labelled mature BCCP1 (114 μM) copurified with unlabelled BADC3 (132 μM) and BC (27 μM); chemical shift perturbation in 1H-15N HSQC against BCCP1 alone; 303 K, 20 mM phosphate pH 7.2, 150 mM NaCl, 10% glycerol, 2 mM DTT
T1 sequence (chain, uniformly 15N-labelled): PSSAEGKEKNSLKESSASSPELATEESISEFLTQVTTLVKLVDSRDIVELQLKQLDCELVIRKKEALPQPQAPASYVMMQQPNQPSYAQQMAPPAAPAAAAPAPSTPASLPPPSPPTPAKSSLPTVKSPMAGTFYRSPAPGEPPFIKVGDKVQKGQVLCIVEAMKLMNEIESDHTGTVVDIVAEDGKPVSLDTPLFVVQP

[2] = target: T1, mature BCCP1 (BCCP1_(81–280)), biotin carboxyl carrier protein 1 of the Arabidopsis heteromeric acetyl-CoA carboxylase (Arabidopsis); test: co-purification + NMR titration; 15N-labelled mature BCCP1 (130 μM) copurified with unlabelled BADC3 (134 μM), no BC; chemical shift perturbation in 1H-15N HSQC against BCCP1 alone; 303 K, 20 mM phosphate pH 7.2, 150 mM NaCl, 10% glycerol, 2 mM DTT

Q: Which results are given for “biotin attachment domain-containing protein 3, BADC3_(A55-Q263) (from UniProt F4J016) (domain or fragment)”?
A: binding [1]: binds; binding [2]: binds
